In the assay the test system is CD2F1 mice, nontumored, toxicity/survival. Kind of assay: NCI In Vivo Anticancer Drug Screen. Data for tumor model Nontumored Animals (Toxicity Test) in CD2F1 (CDF1) mice.

This is an account of results in PubChem BioAssay AID188 (DTP/NCI, 2004).

The mice bore no tumour; each value counts animals alive of those treated. Counts of survivors are from the toxicity check (mostly the fifth day) where no day follows; animals may have died later. Schedule codes are those of the source, read here as Q, the interval in days (D) or hours (H), X, the number of doses. Some entries hold several experiments; the values are given in rising order.

As for `Nc1nccc(NCC(O)c2ccccc2)n1` (configuration not stated), the survivor count is listed as 2 of 2 (dose: 1.0 mg/kg/injection, schedule: Q01DX001 (ip), vehicle: water); 2 of 2 (dose: 10.0 mg/kg/injection, schedule: Q01DX001 (ip), vehicle: water); 2 of 2 (dose: 100.0 mg/kg/injection, schedule: Q01DX001 (ip), vehicle: water).
As to `NC(Cc1cc(I)c(Oc2cc(I)c(O)c(I)c2)c(I)c1)C(=O)O` (configuration not stated), the survivor count is 2 of 3 and 4 of 4 (dose: 0.63 mg/kg/injection, schedule: Q01DX009 (ip), vehicle: saline); 2 of 3 and 4 of 4 (dose: 2.5 mg/kg/injection, schedule: Q01DX009 (ip), vehicle: saline); 0 of 2 and 4 of 4 (dose: 10.0 mg/kg/injection, schedule: Q01DX009 (ip), vehicle: saline); 4 of 4 (dose: 40.0 mg/kg/injection, schedule: Q01DX009 (ip), vehicle: saline).
